These are yes or no findings as the source states them, for the method shown. Binding calls can cover weak binding; strength is not graded here. For some assays here: Where a sequence is shown, tags or fusion partners need not be part of it. For some assays here: In cells and extracts the contact can be indirect.
Experiments:
[1] = biological target: T1, BD-PevD1b (Verticillium dahliae) (UniProt G2WWV6); experiment: two-hybrid; Matchmaker Gold Yeast Two-Hybrid; bait pGBKT7, prey pGADT7; growth on SD/–Trp/–Leu/–His/–Ade (QDO)
T1 sequence: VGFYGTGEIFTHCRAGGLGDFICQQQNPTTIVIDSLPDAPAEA

[2] = biological target: T2, BD-PevD1 (Verticillium dahliae) (UniProt G2WWV6); experiment: as above
T2 sequence: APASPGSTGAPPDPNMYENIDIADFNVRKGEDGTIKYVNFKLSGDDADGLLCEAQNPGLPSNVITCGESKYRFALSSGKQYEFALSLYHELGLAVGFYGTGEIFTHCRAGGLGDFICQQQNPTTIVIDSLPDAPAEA

[3] = biological target: T3, PevD1-HA (Verticillium dahliae) (UniProt G2WWV6); experiment: pull-down; two recombinant proteins mixed, 2 h at 4 °C, Anti-HA Affinity Gel beads, washed five times, eluted, western blot; both purified
T3 sequence: T2 sequence

[4] = biological target: T4, PevD1b (Verticillium dahliae) (UniProt G2WWV6); experiment: as above
T4 sequence: T1 sequence

[5] = biological target: T3, PevD1-HA (Verticillium dahliae); experiment: pull-down; PevD1 mixed with concentrated protein extract (50 mM Tris, 200 mM NaCl, 1% Triton X-100, pH 8.0) of leaves or roots of cotton 4 d after inoculation with V. dahliae, 2 h at 4 °C, Anti-HA Affinity Gel beads; SDS-PAGE, band identified by mass spectrometry; only the target purified

**Q.** Which binding [1] does the source give for AD-GhPR5 (Gossypium hirsutum) here?
**A.** binds

**Q.** And the binding [2]?
**A.** binds

**Q.** Which results are given for GhPR5-His (Gossypium hirsutum)?
**A.** binding [3]: binds; binding [4]: binds

**Q.** Which binding [5] does the source give for “Gossypium hirsutum pathogenesis-related protein 5 (GhPR5), endogenous” here?
**A.** binds

— PMC6322577
